Experimental data published in PubChem BioAssay AID2098 (Broad Institute, 2009).
The whole screen tested about 300,000 compounds, of which about 2,300 (0.77%) were called active. The shares of active, inactive and inconclusive entries below differ from those in the screen.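 The calls were made as follows: active = more than half of replicate wells show activity change below -50%, luminescence cut by over half; inconclusive = some wells, but at most half, below -50%; inactive = no replicate well below -50%.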

assay: HSF1 inhibitors in luciferase reporter cells, primary screen, cell-based, NIH3T3, luminescence (AID 2098); conditions: NIH3T3-HGL HSE-luciferase, MG132-induced, luminescence 8 h; hits give low values; screened at 7.5 µM (by protocol);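 also: luciferase reports HSF-1 transcriptional activity via heat shock element; 0% = median of DMSO wells and -100% = zero luminescence signal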

Row | SMILES | activity change, negative = inhibition
1 | O=C(Cc1ccccc1)Nc1ccc(NC(=O)c2ccco2)cc1Cl | active: -56.3%
2 | COC(=O)c1cccc(NC(=O)CCSc2ccc(Cl)cc2)c1C | inactive: 8.58%
3 | CC(=O)Nc1ccc(NC(=O)c2nc(S(=O)(=O)Cc3cccc(C)c3)ncc2Cl)cc1 | inconclusive: -41.2%
4 | O=C(C1=C(O)C(=O)N(CC2CCCO2)C1c1cccc(Cl)c1)c1ccco1 (stereo unspecified) | inconclusive: -51.5%
5 | CC1(C)N=C(SCC(=O)Nc2ccccc2)C(c2ccc(Cl)cc2)=N1 | inconclusive: -52.6%
6 | CCCNC(=O)COC(=O)c1ccccc1C(=O)c1ccc(Cl)c([N+](=O)[O-])c1 | inconclusive: -21.7%
7 | O=C(COc1ccc(S(=O)(=O)N2CCCCC2)cc1)N1CCCCCC1 | inactive: -3.8%
8 | CCCCn1c(C)cc(C)c(S(=O)(=O)c2ccccc2C)c1=O | inconclusive: -49.7%
9 | Cc1ccc(NC(=O)c2cccc3ccccc23)cc1 | inactive: 13.4%
10 | O=C(O)c1ccc(N/N=C/c2ccc(C(F)(F)F)cc2)cc1 | active: -66.4%
11 | Cc1[nH]n(-c2ccccc2)c(=O)c1N=Nc1ccc2c(c1)OCO2 | inconclusive: -50%
12 | CC1(C)NC(=O)N(CCOCCSc2ccccc2)C1=O | inactive: 3.44%
13 | Cc1nc2ccccc2c(C)c1C(=O)c1ccc(F)cc1 | inconclusive: -47.7%
14 | Nc1nonc1-n1nnc(C(=O)N/N=C/c2cccc(F)c2)c1CN1CCCCCC1 | inconclusive: -48.2%
15 | Cc1cc(=O)n2nc(-c3ccc(C(F)(F)F)cc3)sc2n1 | active: -69.7%
16 | Cc1cc(NC(=O)CSc2nnc(N)s2)c([N+](=O)[O-])cc1C | inactive: 9.78%
17 | C=CCc1ccc(OCCOCCN(C)C)c(OC)c1 | inactive: 1.08%
18 | O=C(NC(=S)N1CCOCC1)c1cc2ccccc2o1 | inconclusive: -31.4%
19 | COn1c(-c2ccccc2)nc2ccc(Cl)cc21 | inactive: 32.4%

Row | SMILES | activity change, negative = inhibition
20 | Cc1ccccc1NC(=O)c1ccc(F)c(S(=O)(=O)NCC2CCCO2)c1 (stereo unspecified) | inactive: -0.421%
21 | COc1ccc(/C=C2/SC(=S)N(CCC(=O)O)C2=O)cc1 | inconclusive: -47.6%
22 | CSc1ccc(/C=N/Nc2nc(C)cc(=O)[nH]2)cc1 | inactive: 3.54%
23 | O=Cc1sc(Nc2ccccc2)nc1Cl | inconclusive: -14%
24 | Cc1nn(-c2ccccc2)c2[nH]c(=O)c(CNc3ccc4c(c3)OCCO4)cc12 | inconclusive: -48.2%
25 | C#CCOCCOCCOCCNc1nc(N2CCN(C(=O)[C@H](CCC(=O)O)n3cc(C(N)Cc4ccc(O)cc4)nn3)CC2)nc(N2CCN(C(=O)[C@H](Cc3ccc(O)cc3)n3cc(C(N)[C@H](C)CC)nn3)CC2)n1 (stereo partly specified) | inconclusive: -48.3%
26 | Cc1ccc(-n2ncc3c(NCc4ccc5c(c4)OCO5)ncnc32)c(C)c1 | active: -55.1%
27 | O=C(c1cc(-c2ccc(Cl)cc2)n[nH]1)N1CCN(C(=O)c2ccco2)CC1 | inactive: -4.71%
28 | O=C(O)c1ccccc1OCc1ccccc1Cl | inconclusive: -49.2%
29 | CCN(c1ccccc1)S(=O)(=O)c1ccc(Cl)c(NC(=O)CSc2nnc(C)s2)c1 | active: -66.4%
30 | Cc1ccccc1NC(=O)Nc1ccc2c(c1)OCO2 | inconclusive: -50.4%
31 | COc1ccccc1CN(C)C(=O)C1COc2ccccc2O1 (stereo unspecified) | inconclusive: -54.1%
32 | O=C(Nc1ccc([N+](=O)[O-])cc1)C(=O)Nc1cccc(C(=O)O)c1 | active: -70.8%
33 | O=C(Nc1ccc([N+](=O)[O-])cc1)C1(c2ccccc2)CCOCC1 | inconclusive: -51.9%
34 | C(=C\c1ccncc1)/c1ccccc1 | inconclusive: -20%
35 | Cc1ccnc(NC(c2ccsc2)c2ccc3ccc(C)nc3c2O)c1 (stereo unspecified) | active: -54%
36 | O=C1CC(=O)Nc2cc(S(=O)(=O)N3CCN(c4cccc(C(F)(F)F)c4)CC3)ccc2N1 | inconclusive: -44.3%
37 | Cc1ccc(C)c(OCCC(=O)OCC(=O)N2CCN(S(=O)(=O)c3ccc(Cl)cc3)CC2)c1 | inconclusive: -1.07%
38 | Cc1ccc(OCC(O)CN2C(=O)NC(C)(C)C2=O)cc1C (stereo unspecified) | inconclusive: -50.1%

Row | SMILES | activity change, negative = inhibition
39 | COc1ccc(OC)c(NS(=O)(=O)c2c(C(=O)N3CCCCCC3)c(C)n(C)c2C)c1 | inactive: 3.98%
40 | CCOC(=O)C1(Cc2ccccc2C(F)(F)F)CCN(CCCn2cccn2)CC1 | inactive: -0.663%
41 | Cc1ccc(OCC(=O)NCCNC(=O)c2ccco2)cc1C | inconclusive: -49.7%
42 | COc1ccc(N=Cc2sc3ccccc3c2Cl)cc1 | inconclusive: -48.7%
43 | COc1ccc(C(CCN(Cc2ccc(OC)c(OC)c2)C(=O)CCl)c2ccccc2)cc1 (stereo unspecified) | inconclusive: -56.6%
44 | O=C(N/N=C/c1ccc(O)c(O)c1O)/C(=C/c1ccc([N+](=O)[O-])cc1)NC(=O)c1ccccc1 | inactive: -14.4%
45 | O=[N+]([O-])C(=C1SCCS1)C(=C(Cl)Cl)N1CCCCC1 | inactive: -7.83%
46 | O=C(CNC(=O)C12CC3CC(CC(C3)C1)C2)NCc1ccccc1 | inconclusive: -51.3%
47 | CCC(=O)Nc1nc(C)c(-c2csc(Nc3cccc(O)c3)n2)s1 | inactive: 3.47%
48 | NNC(=O)c1ccc(O)cc1O | active: -87.9%
49 | Cc1cc(C)n(C(=O)CNC(=O)c2cccs2)n1 | inconclusive: -48.9%
50 | CCOC(=O)c1cccc(NC(=O)CCNS(=O)(=O)c2ccc3c(c2)CCN3C(=O)CC)c1 | inconclusive: -43.4%
51 | O=S(=O)(Nc1cc(Sc2cccc3cccnc23)c(O)c2ccccc12)c1ccc(F)cc1 | inconclusive: 94%
52 | COc1ccc(C(=O)/C=C/C(=O)N(CC(=O)NC2CCCCC2)Cc2ccc(F)cc2)c(O)c1 | inconclusive: -1.45%
53 | CCOC(CNC(=O)c1ccc2nc(N3CCC(C)CC3)sc2c1)OCC | inconclusive: -48.4%
54 | COc1ccc(CNC(=O)C(C#N)c2nc3ccccc3nc2N2CCCC2)cc1 (stereo unspecified) | inconclusive: -45%
55 | O=C(C1CCN(C2CCN(C/C(Cl)=C/c3ccccc3)CC2)CC1)N1CCOCC1 | inactive: -4.97%
56 | COc1cc(CCC(=O)OCn2nnc3ccccc3c2=O)cc(OC)c1OC | active: -81%
